Results deposited as PubChem BioAssay AID1259254 (NCATS, 2017)
Purpose: 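Gene knock-downs that lead to re-replication, shown by excess G2 DNA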 (primary screen). Cells: human HCT116 colorectal cancer cells. Knock-down reagent: single siRNA against human genes. Timing: 3 days. Detection: 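Nuclei stained with Hoechst and imaged; cell-cycle phase assigned by DNA content; G2 share scaled per plate, non-targeting siRNA 0%, GMNN siRNA 100%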. Scale: G2 robust z-score: higher = more G2 cells, more excess DNA replication. Rule for the call: 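Active siRNAs have a G2 robust z of 5 or more median absolute deviations over the median, which in these data means about 38% or higher of GMNN control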.
Here is one part, drawn at random, of about 59,000 reagents. In the full data, about 1,550 (2.6%) are marked active. 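G2 share is only a proxy for re-replication; each gene was hit by three separate siRNAs, and active genes were retested.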 A number with no mark means an inactive call. The numbers tell different reagents against one gene apart. Not all columns of the deposit are shown. Not stated in the record: the amount of reagent.

SEC61A2 (SEC61 translocon subunit alpha 2) #1
- G2 robust z-score: 0.99

SEC61A2 (SEC61 translocon subunit alpha 2) #2
- G2 robust z-score: -0.25

SEC61A2 (SEC61 translocon subunit alpha 2) #3
- G2 robust z-score: -0.329

RAD54B (RAD54 homolog B) #1
- G2 robust z-score: -0.266

RAD54B (RAD54 homolog B) #2
- G2 robust z-score: 0.722

RAD54B (RAD54 homolog B) #3
- G2 robust z-score: 0.21

RIN1 (Ras and Rab interactor 1) #1
- G2 robust z-score: 0.08

RIN1 (Ras and Rab interactor 1) #2
- G2 robust z-score: -0.503

RIN1 (Ras and Rab interactor 1) #3
- G2 robust z-score: 0.289

SCGB1A1 (secretoglobin family 1A member 1) #1
- G2 robust z-score: 0.67

SCGB1A1 (secretoglobin family 1A member 1) #2
- G2 robust z-score: -0.342

SCGB1A1 (secretoglobin family 1A member 1) #3
- G2 robust z-score: -0.514

LAMC2 (laminin subunit gamma 2) #1
- G2 robust z-score: -0.933

LAMC2 (laminin subunit gamma 2) #2
- G2 robust z-score: -0.476

LAMC2 (laminin subunit gamma 2) #3
- G2 robust z-score: 0.274

GFOD1 (Gfo/Idh/MocA-like oxidoreductase domain containing 1) #1
- G2 robust z-score: 1.35

GFOD1 (Gfo/Idh/MocA-like oxidoreductase domain containing 1) #2
- G2 robust z-score: -0.856

GFOD1 (Gfo/Idh/MocA-like oxidoreductase domain containing 1) #3
- G2 robust z-score: 1.57

GFOD1 (Gfo/Idh/MocA-like oxidoreductase domain containing 1) #4
- G2 robust z-score: -0.702

GFOD1 (Gfo/Idh/MocA-like oxidoreductase domain containing 1) #5
- G2 robust z-score: 3.4

GFOD1 (Gfo/Idh/MocA-like oxidoreductase domain containing 1) #6
- G2 robust z-score: -0.174

TIMP1 (TIMP metallopeptidase inhibitor 1) #1
- G2 robust z-score: -0.0476

TIMP1 (TIMP metallopeptidase inhibitor 1) #2
- G2 robust z-score: -0.476

TIMP1 (TIMP metallopeptidase inhibitor 1) #3
- G2 robust z-score: -0.637
